Taken from: PubChem BioAssay AID504808 (Drosophila RNAi Screening Center, 2011)
The deposit covers about 21,000 reagents; shown is an unselected part of those that have a named target and a result. Over the whole deposit, 18 (0.084%) got an active call. 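Raw counts without plate normalisation, one of two replicates; the ratio scores behind the calls were not deposited.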 A number with no mark means an inactive call. A plus sign joins genes that one reagent is predicted to hit. No sequences are given here. The record does not give: the amount of reagent, the time to read-out.

Assay: 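Genes whose loss lifts activity of an E2F-responsive reporter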 (primary screen)
System: Drosophila S2 cells
Reagent: long dsRNA against Drosophila genes
Measured: 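Firefly luciferase driven by E2F sites, normalised to Renilla luciferase on the same minimal promoter, measured by plate reader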
Reading the numbers: E2F firefly: higher = more E2F reporter activity; Renilla normaliser: higher = more normaliser reporter signal
Rule for the call: 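Called active if the normalised E2F reporter went up by over 50%; the cutoff is arbitrary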

predicted target,dsRNA,"E2F firefly, rep 1","Renilla normaliser, rep 1"
CG1309,DRSC08302,65627,3278
CG9162 (retired record),DRSC03151,78435,3537
laza,DRSC11661,75918,3286
Rab14,DRSC03403,84578,4136
Pur-alpha,DRSC17166,2017,840
rtv,DRSC19541,7191,788
CG13712,DRSC08321,94620,3674
CtsL2,DRSC06978,218,39
CG31924,DRSC00689,1.68e5,5650
Polr2J,DRSC02995,1.10e5,5270
CG3014,DRSC15458,1.26e5,6131
Jhbp13,DRSC02913,1.14e5,4829
Ythdf,DRSC16036,1.17e5,5663
Ythdf,DRSC16037,1.25e5,6283
CG7763,DRSC07043,1.08e5,4201
dmt,DRSC16932,1.48e5,12949
CG34429,DRSC10120,1.39e5,6700
CG16904,DRSC15161,76521,3521
CG12689,DRSC17879,1.28e5,6282
L2HGDH,DRSC02082,88115,3824
Pits,DRSC19385,1.34e5,8698
Pits,DRSC19812,1.39e5,6801
pyr,DRSC06319,94368,4070
CG11400,DRSC06070,1.55e5,5823
CG32486,DRSC08413,73221,3666
CG32486,DRSC08488,1.02e5,3922
CG9631,DRSC14137,70101,3444
CG13869 + CG11099,DRSC06428,1.48e5,5252
CG3198,DRSC18292,1.10e5,4843
mRpL9,DRSC15678,1.16e5,5595
Ran-like,DRSC10918,67024,3166
CG4631,DRSC02766,94278,4330
CG31730,DRSC01308,1.41e5,6390
CG11368,DRSC17778,1.03e5,5791
LManV,DRSC03223,82879,3406
CG10395,DRSC04840,79277,3769
CG14969,DRSC08428,83464,3254
Dus2,DRSC19591,7859,740
ldbr,DRSC10933,71721,4104
Acp26Aa,DRSC01855,1.48e5,5178
Hrs,DRSC00549,96406,3957
CG5174,DRSC06920,76267,3729
CG10737,DRSC05999,64750,3130
Gr22b,DRSC20911,76839,2982
Tsp42Eh,DRSC06190,1.41e5,5434
CBP,DRSC17746,8042,684
COX7C,DRSC06831,70570,3757
CG9555,DRSC03264,1.54e5,5218
HP6,DRSC00471,1.34e5,4745
glob1,DRSC16959,78546,3735
Ufl1,DRSC12527,74018,3348
CG15365,DRSC18038,25425,2614
CG14511,DRSC14863,1.26e5,6238
h-cup,DRSC15973,77310,3692
CG15211,DRSC19657,1.36e5,5870
Arpc3A,DRSC15596,1.16e5,6299
CG14422,DRSC17919,1.15e5,6023
Mst87F,DRSC16747,1.11e5,5432
Dh44-R1,DRSC07172,152,39
CG8360,DRSC03085,1.35e5,5285
CG42394 + CG6567,DRSC12821,68667,3989
Pnn,DRSC16415,1.43e5,7229
SPoCk,DRSC11675,1.36e5,6742
SPoCk,DRSC11706,1.33e5,5569
SPoCk,DRSC11844,1.32e5,6539
SPoCk,DRSC11845,1.38e5,5975
CG5087,DRSC10479,1.00e5,4142
PsGEF (retired record),DRSC18600,98633,5329
PsGEF (retired record),DRSC18601,1.13e5,5124
nis,DRSC00290,86390,4193
Den1,DRSC07195,1.03e5,4696
achi,DRSC07276,92457,4198
Ugt35E2,DRSC16083,1.53e5,7063
CG12003,DRSC08214,1.06e5,4119
xmas-1 (retired record),DRSC20386,2.33e5,7150
CG11655,DRSC19413,2.05e5,9349
CG32483,DRSC07902,1.29e5,4451
ringer,DRSC10455,1.81e5,8996
Zw,DRSC20303,1.52e5,5239
CG5674,DRSC02874,77517,4058
SIFa,DRSC04480,1.12e5,4609
Blimp-1,DRSC10496,84290,3367
bnb,DRSC20314,1.51e5,4842
DIP-theta,DRSC00885,1.48e5,5399
DIP-theta,DRSC02340,1.52e5,4755
DIP-theta,DRSC02341,1.63e5,5412
CG10555,DRSC17748,78863,4292
CG9919,DRSC20219,1.24e5,5506
Mcm6,DRSC18680,9309,764
CG13000,DRSC19519,2.00e5,7955
thoc6,DRSC10528,68467,3823
CG2187,DRSC15425,55644,3377
CycG,DRSC14324,1670,992
Sf3a2,DRSC09801,75886,3803
Pkcdelta,DRSC19356,72023,4070
Pkcdelta,DRSC19399,1.19e5,6423
chk,DRSC04994,85612,3417
CG11983,DRSC14458,1.39e5,7604
Bace,DRSC02197,49581,3351
Flad1,DRSC19898,8153,816
betaGlu,DRSC15419,1928,968
mex1,DRSC11368,1.56e5,6757
Max,DRSC11218,81206,153
Incenp,DRSC06116,93892,3639
Myo31DF,DRSC03376,79734,3171
obe,DRSC15736,85869,3764
CG6511,DRSC10656,93438,4485

Targets listed so far whose target name starts with B or b:
predicted target,dsRNA,"E2F firefly, rep 1","Renilla normaliser, rep 1"
Blimp-1,DRSC10496,84290,3367
bnb,DRSC20314,1.51e5,4842
Bace,DRSC02197,49581,3351
betaGlu,DRSC15419,1928,968
